No constants are given. Whether binding was seen depends on the method and setting. Some entries that bind do so weakly or less than the wild type.

Sequences of proteins named here, by UniProt entry; tags and fusion partners are left off. A change or cut given only in a name is not applied to a line headed by its entry. A line that says so, or that is headed by a name, gives the form on record, which may keep a tag or linker.
UniProt P17839: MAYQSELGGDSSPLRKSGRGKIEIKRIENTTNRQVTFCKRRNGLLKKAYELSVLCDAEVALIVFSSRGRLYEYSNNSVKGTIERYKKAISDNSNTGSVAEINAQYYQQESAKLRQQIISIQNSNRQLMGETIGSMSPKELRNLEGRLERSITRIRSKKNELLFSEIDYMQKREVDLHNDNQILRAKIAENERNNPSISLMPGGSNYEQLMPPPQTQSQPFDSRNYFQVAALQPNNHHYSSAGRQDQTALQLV
UniProt O22456: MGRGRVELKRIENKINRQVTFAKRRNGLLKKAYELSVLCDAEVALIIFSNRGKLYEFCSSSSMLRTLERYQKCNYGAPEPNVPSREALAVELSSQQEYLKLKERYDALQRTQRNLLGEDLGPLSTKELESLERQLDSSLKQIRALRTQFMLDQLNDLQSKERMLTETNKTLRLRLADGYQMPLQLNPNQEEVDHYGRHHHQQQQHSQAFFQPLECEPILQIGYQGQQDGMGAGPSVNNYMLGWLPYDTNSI
SEP3 AAAAGPL mutant, in vitro translated (O22456, form named): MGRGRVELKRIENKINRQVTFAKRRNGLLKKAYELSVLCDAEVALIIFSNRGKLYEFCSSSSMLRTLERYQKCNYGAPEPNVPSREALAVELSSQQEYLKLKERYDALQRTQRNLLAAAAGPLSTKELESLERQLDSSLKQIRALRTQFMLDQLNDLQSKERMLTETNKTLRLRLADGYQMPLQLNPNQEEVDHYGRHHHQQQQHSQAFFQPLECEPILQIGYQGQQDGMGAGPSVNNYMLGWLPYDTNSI

The test concerns the target AGAMOUS, in vitro translated (A.thaliana) (UniProt P17839). Briefly: native gel or EMSA; in vitro translated proteins on a biotin-labelled SEP3 promoter probe with two CArG boxes; SEP3 or mutant titrated against constant AG (1:1, 1:0.75, 1:0.50, 1:0.25); on ice 30 min; native 5% polyacrylamide gel.
“SEP3 AAAAGPL mutant, in vitro translated (from UniProt O22456 1-251)”: the binding entry was “binds weakly”. To “SEP3(G121A/P122A/L123A), in vitro translated (from UniProt O22456 1-251)” belongs “binds”. Under “SEP3(P122A), in vitro translated (from UniProt O22456 1-251)” stands “binds”; under “native SEP3, in vitro translated (from UniProt O22456 1-251)”, “binds”.

The values above are taken from publication PMC5364480.
